Measurements as given in PubChem BioAssay AID2685 (National Center for Advancing Translational Sciences (NCATS), 2010).
Screen size: about 320,000 compounds; about 2,100 (0.66%) were called active. Inconclusive means that the source gave no clear call. Such entries were picked first, then a sample of the others. Calls follow the shape of the dose curve; as a rule, active = well fitted inhibition curve with a large enough effect in the signal ratio, with a control signal flat (not every such curve was filed as active); inconclusive = small, poorly fitted or top-dose-only effect, or effect the other way, or a change in a side signal; inactive = flat fitted curve, though single readings scatter; the % refers to the signal ratio. Potencies beside an inconclusive call are fits to weak or partial responses and may not hold up.

Assay: qHTS Assay for Lipid Storage Modulators in Drosophila S3 Cells
Details: BODIPY lipid droplet fluorescence, 18-24 h, cells fed with added oleic acid; lipid storage change, negative = inhibition: at 46.1 µM (top of the series) unless noted
How it was run: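 Drosophila S3 cells got compounds at several concentrations plus oleic acid (400 uM solution). Laser-scanning cytometry with 488 nm excitation read lipid droplets at 500-530 nm and cells at 575-640 nm. Percent activity was relative to 20 uM Triacsin C.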
% is scaled to controls: 0 for no effect and ±100 for the full control effect; potency is read from the fitted curve at half-maximal effect.

Lipid storage change, negative = inhibition, inactive:
CC(=O)N(CCC(c1ccco1)C(C)C)Cc1ccc(OC(C)C)cc1 (stereo not drawn) -3.84%
CC(=O)N[C@H](C(=O)N[C@@H](C)C(=O)N[C@H](C#N)CC(=O)O)C(C)C 11.1%

Lipid storage change, negative = inhibition, inconclusive:
CN(C)c1cc[n+](CC(=O)Nc2ccc(Cl)c([N+](=O)[O-])c2)cc1 -5%
Cc1ccc(Cn2nnc3c(=O)[nH]c(C4CCCN(C(=O)c5ccco5)C4)nc32)cc1 (stereo not drawn) -3.39%
O=C(Nc1cscc1S(=O)(=O)c1ccc(Cl)cc1)c1ccccc1Cl -31.3%
CC1CCCCN1C(=O)COC(=O)/C=C/c1ccc2ccccc2n1 (stereo not drawn) 10.1%
CN(CCc1ccccn1)C(=S)Nc1cccc(S(=O)(=O)N(C)C)c1 -16%
O=C(CCCCN1CCCCC1)c1ccc2c(c1)Cc1ccccc1-2 17.7%
O=C(Cc1c(Cl)cccc1Cl)NC1=NCCS1 4.26%
O=C(NCCc1ccccc1)/C(=C\c1cccc([N+](=O)[O-])c1)NC(=O)c1ccco1 -30.5%
Cc1ccc2c(c1)N(CC(=O)N1CCCCCC1)C(=O)CO2 28.3%
Cc1cc(NC(=O)CSc2nnc(-c3ccncc3)n2Cc2ccccc2)n(-c2ccccc2)n1 12.8%
Cc1ccc(C(=O)COC(=O)c2nc3nccc(C)n3n2)c(C)c1 8.36%
C/C=C/C=N/Nc1nc(C)cc(=O)[nH]1 -37.6%
CC1(C)Cc2c(C#N)c(SCCC#N)nc(N3CCOCC3)c2CO1 -11.1%
Cc1ccc(CNC(=O)CCS(=O)(=O)c2ccc3c(c2)CC(C)N3C(=O)C2CC2)cc1 (stereo not drawn) -12%
O=C(COC(=O)C1=COCCO1)Nc1ccc(F)cc1
CC(=O)Nc1ccc(S(=O)(=O)NCc2nc(-c3cccc(C)c3)no2)cc1 -32%
Cc1c(C(=O)NCc2ccoc2)oc2ccc3c(c12)C(=O)CC(C)(C)O3 -25%
CCC(=O)Nc1ccc2c(c1)nc(CN1CCN(C(C)=O)CC1)n2C -36.4%
CCOC(=O)CSc1nnc(Cc2ccccc2)n1CC1CCCO1 (stereo not drawn) -9.79%
O=C(CSc1nnc(CNC(=O)c2ccccc2)o1)c1ccccc1 9.17%
N#Cc1c(-c2ccccc2)nc(-c2cccnc2)[nH]c1=O 10.2%
CCC/C(=N\NC(=O)c1ccco1)c1ccc(Cl)s1 49.2%
O=C(OCCc1cc2ccccc2c(=O)o1)c1cccs1 3.66%
CCC(C)[C@H](NC(=O)[C@@H]1CSC2c3ccccc3C(=O)N21)C(=O)NCc1ccco1 (stereo partly drawn) -77.8%
COc1ccc(C)cc1NC(=O)CN1C(=O)COc2ccc(S(=O)(=O)N3CCOCC3)cc21 88.5%
O=C(C1CCCN(Cc2cccc(Cl)c2)C1)N1CCCCC1 (stereo not drawn) 17.7%
COc1ccc(CC(=O)Nc2ccc(S(=O)(=O)Nc3onc(C)c3C)cc2)cc1OC -95.4%
CCN(CC)CCC(c1cc(OC)c(OC)c(OC)c1)c1c(OC)cc(OC)c2c(-c3ccccc3)cc(=O)oc12 (stereo not drawn) 13.5%
CCc1nnc(NC(=O)CSc2nc(-c3ccccc3)nc3ccccc23)s1 14.9%
CCn1c(SCC(=O)c2cccs2)nnc1-c1ccco1 24.5%
Cc1ccccc1CSc1nnc(NC(=O)C2COc3ccccc3O2)s1 (stereo not drawn) -27.5%
Cc1ccc2c(c1)C1CN(C)CCC1N2C(=S)NC(=O)c1ccc(Cl)cc1Cl (stereo not drawn) 20.4%
Cc1cc(NC(=O)c2cncc(Br)c2)no1 -32% [at 0.0737 µM]
O=C(NCc1cccnc1)c1cc([N+](=O)[O-])ccc1N1CCOCC1 10.2%
Cc1c(Cl)cccc1Nc1ncccc1C(=O)OCC(O)CO (stereo not drawn) 12.5%
Cc1cnc(C(=O)Nc2cccc3ncccc23)cn1 18.4%
O=C(CSc1nccn1-c1ccc(F)cc1)NCc1ccc(F)cc1 8.06%
Cc1c(C#N)c(O)n(CCO)c(=O)c1N=Nc1ccc2c(c1)COC2=O 44.7%
Cc1cc(C)cc(NC(=O)c2ccc3c(c2)CCN3S(C)(=O)=O)c1 30%
O=C(COC(=O)/C=C/c1ccc(F)cc1)Nc1nnc(-c2ccccc2)o1 19%
CCOc1ccc(NC(=O)c2ccc(NC(=O)c3ccccc3Br)cc2)cc1
CC(OCC(O)CN1CCCCC1CCO)c1ccc(Cl)cc1 (stereo not drawn) 220%
CN1CCN(CCC(=O)Nc2cccc(Br)c2)CC1 -7.86%
Cc1cc(C)c(NC(=O)C(C)OC(=O)c2cc(Br)c(Br)s2)c(C)c1 (stereo not drawn) 7.66%
CNc1cc(-n2nc(C)cc2-c2ccccc2)ncn1 14.9%
O=C(NCc1ccco1)C(=O)NCC1OCCN1S(=O)(=O)c1ccc(Cl)cc1 (stereo not drawn) 5.69%
CCOc1c(Br)cc(CNc2ccc(N3CCN(C(C)=O)CC3)cc2)cc1OC -30.8%
CC(NC(=S)N1CCN(c2ccccc2)CC1)c1ccccc1 (stereo not drawn) 30.2%
Cc1ccc(C)c(NC(=O)C(Sc2ncnc3ccccc23)c2ccccc2)c1 (stereo not drawn) 22.5%
COc1ccccc1NC(=O)Cn1cnc2sc(C(=O)Nc3ccc(OC)c(OC)c3)c(C)c2c1=O -0.378%
COC(=O)C(=Cc1ccc(OCc2ccc([N+](=O)[O-])cc2)c(OC)c1)C(=O)OC 19.9%

Potency, inconclusive:
Cc1ccccc1NC(=O)C1=CC=CN2CCS(=O)(=O)N=C12 0.13 µM [falling, partial curve, poor fit]
c1ccc(-n2c(-c3ccncc3)nnc2-c2ccco2)cc1 6.51 µM [rising, single point]
COC(=O)c1ccc(NC(=O)C2CCCN(S(=O)(=O)c3cnc[nH]3)C2)cc1 (stereo not drawn) 2.31 µM [activator, single point]
CC(C)C(NC(=O)Cc1ccccc1)C(=O)N1CCN(c2cccc(Cl)c2)CC1 (stereo not drawn) 29.1 µM [activator, single point]
CCCNC(=O)CCn1cc(-c2ccc(OC)cc2)nc1CCN 8.2 µM [activator, partial curve]
CCN(CC)S(=O)(=O)c1ccc(C(=O)NCc2ccc(C)cc2)cc1 7.31 µM [falling, partial curve]
COCCNC(=O)Cn1cnc2sc(C)c(S(=O)(=O)N3CCN(c4ccccc4OC)CC3)c2c1=O 0.651 µM [falling, single point]
Cc1cccc(NC(=O)CCN2CCCC(C)C2)c1 (stereo not drawn) 32.6 µM [activator, single point]
Cn1nnc(NC(=S)NC(=O)c2cccc3c(Cl)cccc23)n1 20.6 µM [activator, partial curve]
CN(CC(=O)Nc1cccc(F)c1)C(=O)c1cc(S(=O)(=O)N(C)C)ccc1N1CCCC1 4.61 µM [activator, full curve]
O=C(OCC(=O)N1CCN(C(=O)c2ccco2)CC1)c1cccc(S(=O)(=O)N2CCc3ccccc32)c1 0.411 µM [falling, full curve, poor fit]
Cc1cc(NC(=O)C(C)SCC(=O)Nc2cc(Cl)ccc2N2CCN(C)CC2)no1 (stereo not drawn) 0.0052 µM [falling, full curve, poor fit]
Cc1cc(C)n(CC(=O)N2c3ccccc3Sc3ccc(C(F)(F)F)cc32)n1 9.2 µM [rising, partial curve]
Cn1c(=O)[nH]c(=O)c2c1nc(Br)n2CCCCSc1nc2ccccc2o1 16.4 µM [activator, single point]
N#CC1(NC(=O)COC(=O)/C=C/c2ccc3ccccc3n2)CCCCC1 0.0058 µM [activator, full curve, poor fit]
CSc1cccc(NC(=O)CNC(=O)c2ccc3c(c2)OCO3)c1 3.66 µM [rising, partial curve]
COCC(C)NC(=O)CSc1nc2cc(S(=O)(=O)N3CCCCC3)ccc2o1 (stereo not drawn) 0.146 µM [activator, full curve, poor fit]
O=C(Nc1cccc(S(=O)(=O)N2CCCC2)c1)c1ccncc1 23.1 µM [falling, single point]
CCCCn1c(NC(=O)c2ccccc2Cl)c(C#N)c2nc3ccccc3nc21 20.6 µM [falling, single point]
COc1ccc(CCNC(=O)CSc2n[nH]c(N)n2)cc1OC 0.58 µM [falling, single point]
Cc1cc(C(=O)CSc2nc(N)cc(=O)[nH]2)c(C)n1-c1cccc(F)c1 29.1 µM [falling, single point]

Ordered by length of the SMILES (largest number first): 3 of the compounds above.
Potency, inconclusive:
Cc1cc(C)n(CC(=O)N2c3ccccc3Sc3ccc(C(F)(F)F)cc32)n1 9.2 µM [rising, partial curve]
COCC(C)NC(=O)CSc1nc2cc(S(=O)(=O)N3CCCCC3)ccc2o1 (stereo not drawn) 0.146 µM [activator, full curve, poor fit]
CCCNC(=O)CCn1cc(-c2ccc(OC)cc2)nc1CCN 8.2 µM [activator, partial curve]

Following part:

Potency, active:
COc1ccc(Cl)cc1NC(=O)CCNC(=O)OCc1ccccc1 7.31 µM
Cc1nn2c(=O)cc(COC(=O)c3ccc(NC(=O)C(C)(C)C)cc3)nc2s1 3.66 µM

outcome, inactive:
CC(C)Cn1c(=O)c2sccc2n2c(CCCC(=O)NC3CCN(Cc4ccccc4)CC3)nnc12 inactive [at 46.1 µM]
Cc1ccc(C(=O)NCc2cccnc2)o1 inactive [at 46.1 µM]
